Laboratory results reported in the supplement of paper PMC4604168 (melanoma cell lines).
The list shows a part of the results. Many values rest on one well or one pass, so single values are uncertain.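 Imaging used 1,536-well plates; nuclei positive for cleaved PARP by antibody were divided by total DNA-stained nuclei to yield the apoptosis fraction. Doses for screening kept most cells viable, and cell lines differ markedly in resting and induced cleaved-PARP levels.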

Key:
Test in all cases: cleaved PARP positive nuclei fraction relative to DMSO control; melanoma cells; higher = more apoptosis
Conditions in all cases: library dose: low library concentration; 72 h
WM115 = tested on: WM115
WM1716 = tested on: WM1716
WM1745 = tested on: WM1745
WM3526 = tested on: WM3526
WM3619 = tested on: WM3619
WM451Lu = tested on: WM451Lu

Structure (SMILES)	cleaved PARP positive nuclei fraction (WM115) [%]	cleaved PARP positive nuclei fraction (WM1716) [%]	cleaved PARP positive nuclei fraction (WM1745) [%]	cleaved PARP positive nuclei fraction (WM3526) [%]	cleaved PARP positive nuclei fraction (WM3619) [%]	cleaved PARP positive nuclei fraction (WM451Lu) [%]
Cn1sc(=O)n(Cc2ccccc2)c1=O + COc1cc2c(Oc3ccc4[nH]c(C)cc4c3F)ncnc2cc1OCCCN1CCCC1 [cediranib] (first compound 0.4 µM, partner dose 0.4 µM)	69.5	61.4	116	62.9	99.1	74.2
C[C@@H](N)c1ccc(C(=O)Nc2ccnc3[nH]ccc23)cc1 + O=C(CCCCCCC(=O)Nc1ccccc1)NO [vorinostat] (first compound 0.4 µM, partner dose 0.08 µM)	41.2	343	92.4	35.5	103	272
COc1ccc(C2=N[C@@H](c3ccc(Cl)cc3)[C@@H](c3ccc(Cl)cc3)N2C(=O)N2CCNC(=O)C2)c(OC(C)C)c1 [Nutlin-3] + COCC[n+]1c2c(n(Cc3cnccn3)c1C)C(=O)c1ccccc1C2=O [YM155] (first compound 0.1 µM, partner dose 0.0004 µM)	89	73.8	100	41.4	94.5	223
CCN(CC)CCNC(=O)c1c(C)[nH]c(/C=C2\C(=O)Nc3ccc(F)cc32)c1C [sunitinib] + COc1cc2c(Oc3ccc4[nH]c(C)cc4c3F)ncnc2cc1OCCCN1CCCC1 [cediranib] (first compound 0.4 µM, partner dose 0.4 µM)	97.9	115	109	181	89.6	66.1
